Laboratory results taken from the supplement of paper PMC3334620.
In all, about 33,000 sequences were measured (“E-score (-0.5 to 0.5)”: median about -0.0059, highest 2% from about 0.26 on). The list shows a part of the results.

Target: T1, Cin5 (UniProt P40917)
T1 sequence: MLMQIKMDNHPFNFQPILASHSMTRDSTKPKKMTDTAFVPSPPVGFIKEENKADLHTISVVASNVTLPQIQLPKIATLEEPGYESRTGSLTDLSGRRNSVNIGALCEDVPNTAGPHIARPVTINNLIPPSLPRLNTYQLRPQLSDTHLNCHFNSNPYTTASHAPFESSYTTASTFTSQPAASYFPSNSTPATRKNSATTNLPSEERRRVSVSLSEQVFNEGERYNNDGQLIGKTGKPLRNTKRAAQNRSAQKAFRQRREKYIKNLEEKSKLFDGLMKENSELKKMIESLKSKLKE
Experiment: PBM E-score (8-mer binding enrichment) (E-score (-0.5 to 0.5)); higher = stronger / more preferred TF binding
Conditions: protein concentration: 100 nM; construct: GST-full length
How it was run: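 Masliner-normalised scans of fluorescent anti-GST signal were the basis for scoring. That signal came from GST-tagged yeast transcription factors applied at about 100-200 nM to double-stranded universal all-10-mer Agilent arrays on fresh or once-stripped slides. Each ungapped eight-base word, pooled with its reverse complement, received an E-score from the Universal PBM Analysis Suite.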

Going from ACCATCTG to CCTTCCTA, the “PBM E-score” value falls from -0.0954 to -0.305.

Compared with CGCGCGAA, AGAACGCG is lower in “PBM E-score” value: 0.111 for the first, 0.0147 for the second.

Going from CCAGGAAA to AAGCGAAA, the “PBM E-score” value rises from 0.0733 to 0.173.

First: GACGGCGA
Second: ACATTCCG
The “PBM E-score” value of the first is lower: -0.17 for the first, 0.147 for the second.

Going from AACGAAGT to AACACATG, the “PBM E-score” value rises from -0.148 to 0.118.

Compared with CTCAGCAA, CAGGGCTA is lower in “PBM E-score” value: 0.0669 for the first, -0.21 for the second.

First: AGTCTATA
Second: AATTAAAG
The “PBM E-score” value of the first is lower: -0.18 for the first, 0.0445 for the second.

First: ACCGTGGC
Second: AATCAAAG
The “PBM E-score” value of the first is lower: -0.199 for the first, -0.0282 for the second.

Compared with ATGATGAC, TCATTACA is lower in “PBM E-score” value: 0.207 for the first, 0.164 for the second.

First: CTAAACTC
Second: AGATTACT
The “PBM E-score” value of the first is lower: -0.0293 for the first, 0.182 for the second.

First: ATTACATA
Second: GAACAACA
The “PBM E-score” value of the first is higher: 0.355 for the first, 0.0537 for the second.

Going from AGAAGACG to CGGGCAGA, the “PBM E-score” value falls from 0.145 to 0.109.

Compared with CACTCAAA, CAGTGCGG is lower in “PBM E-score” value: 0.00096 for the first, -0.0534 for the second.

Going from CTTTCTAC to GGGCAATA, the “PBM E-score” value rises from 0.0311 to 0.109.

Compared with ATATCAGC, CGACTTTA is lower in “PBM E-score” value: 0.141 for the first, -0.0879 for the second.

First: TGAATGAA
Second: AAAGACGG
The “PBM E-score” value of the first is higher: 0.179 for the first, 0.0469 for the second.

Compared with AACGTGTA, GCGGTGTA is lower in “PBM E-score” value: -0.0256 for the first, -0.0803 for the second.

First: CTAGAAAG
Second: AGATACCT
The “PBM E-score” value of the first is higher: 0.0796 for the first, 0.0206 for the second.

First: AGCTCAGA
Second: CAGGTTCC
The “PBM E-score” value of the first is higher: 0.12 for the first, 0.026 for the second.

Compared with GGTCTTAC, ACTTGGCC is higher in “PBM E-score” value: -0.142 for the first, -0.0586 for the second.

First: ATACAGCC
Second: CACCCCGC
The “PBM E-score” value of the first is higher: 0.0459 for the first, -0.121 for the second.

Going from AATATGGA to ACGCACCT, the “PBM E-score” value rises from -0.0209 to -0.00098.

Going from CCATACCA to ATGGACCG, the “PBM E-score” value rises from 0.0193 to 0.0527.

First: CTTGTGAC
Second: CATGGTTC
The “PBM E-score” value of the first is lower: -0.0625 for the first, 0.0143 for the second.

Going from ATTGAGGC to CATCAATC, the “PBM E-score” value rises from 0.0395 to 0.14.

Compared with AGTGTGTG, GAGGAACC is lower in “PBM E-score” value: -0.00063 for the first, -0.13 for the second.

Compared with CGCCTTCA, AACTGGAA is higher in “PBM E-score” value: -0.292 for the first, 0.0471 for the second.

Going from CCGCTTGC to GCAGTCCA, the “PBM E-score” value rises from -0.0491 to 0.00721.

Going from ATTGTGGG to AGCGCGAT, the “PBM E-score” value rises from 0.0197 to 0.172.

First: CTTATCGC
Second: TGGCACCA
The “PBM E-score” value of the first is higher: -0.0252 for the first, -0.206 for the second.

First: GACCGCAC
Second: ACGGTTCC
The “PBM E-score” value of the first is lower: -0.198 for the first, -0.0446 for the second.

Compared with AGACGTTC, ATGCGCCA is higher in “PBM E-score” value: 0.0426 for the first, 0.0926 for the second.

Going from GTCAAGAC to CCAAACCG, the “PBM E-score” value rises from -0.183 to 0.00669.

First: ACCTAAAG
Second: GCTCCGAC
The “PBM E-score” value of the first is higher: -0.0437 for the first, -0.226 for the second.

Compared with ATCTGGGC, ATTCTGCA is higher in “PBM E-score” value: -0.0822 for the first, 0.131 for the second.

Going from ATCGACTA to TATCAGCA, the “PBM E-score” value rises from -0.00461 to 0.124.

Compared with ACCCAAGG, TAACGGGA is lower in “PBM E-score” value: 0.107 for the first, -0.0562 for the second.

Compared with CAAGATGA, ACGGAACT is higher in “PBM E-score” value: -0.055 for the first, 0.217 for the second.

Going from ATCGAAAT to AGAGATCA, the “PBM E-score” value falls from 0.132 to 0.034.

Going from CTGTAATC to CAAGTTCG, the “PBM E-score” value falls from 0.128 to -0.119.

First: ACTCCGTA
Second: AGACCAGC
The “PBM E-score” value of the first is higher: 0.0453 for the first, -0.257 for the second.

First: CAAGATAA
Second: ATAATGGG
The “PBM E-score” value of the first is higher: 0.21 for the first, 0.186 for the second.

Compared with ATATGTAA, CGGACGAC is lower in “PBM E-score” value: 0.106 for the first, -0.0643 for the second.

First: AACCGCCG
Second: AACAGGAC
The “PBM E-score” value of the first is lower: -0.0722 for the first, -0.0541 for the second.

Compared with AGACAATG, GAGCTACA is lower in “PBM E-score” value: -0.00251 for the first, -0.141 for the second.

Going from CATATATA to AGGGACCC, the “PBM E-score” value falls from 0.322 to -0.279.

First: CGCCGTTC
Second: CCTGAGAC
The “PBM E-score” value of the first is higher: -0.0801 for the first, -0.22 for the second.

First: ACGATCGG
Second: TCCTTTCA
The “PBM E-score” value of the first is lower: -0.00454 for the first, 0.0218 for the second.

Going from AGTAAAGC to AAGAAAGT, the “PBM E-score” value rises from 0.129 to 0.138.

Compared with AGGTGTCC, ACTCACGC is higher in “PBM E-score” value: -0.182 for the first, -0.0912 for the second.

Going from GGTCATCA to CATCGTAA, the “PBM E-score” value rises from 0.0568 to 0.0929.

Going from ACTCTATA to GTGCAATA, the “PBM E-score” value falls from 0.194 to 0.0714.

First: AAATGCGC
Second: GATAATGA
The “PBM E-score” value of the first is higher: 0.209 for the first, 0.161 for the second.

First: GACCCATA
Second: AACCGTTA
The “PBM E-score” value of the first is higher: 0.222 for the first, -0.278 for the second.

Going from CCTCTTAA to CATTGCTA, the “PBM E-score” value rises from 0.0263 to 0.205.

Going from CCACTACA to AGGGAGAA, the “PBM E-score” value falls from 0.109 to -0.127.

Going from CAACCAAA to AACTCTAC, the “PBM E-score” value falls from 0.0549 to -0.124.

Compared with ACAAGTAG, AGATAAGC is higher in “PBM E-score” value: -0.0228 for the first, 0.128 for the second.

Compared with CGTAAGTA, CCCAAAGG is lower in “PBM E-score” value: 0.19 for the first, -0.278 for the second.

Compared with CTCACATC, AGTAAGCC is higher in “PBM E-score” value: 0.0895 for the first, 0.216 for the second.

Going from CCAATTCG to ATTTCGCA, the “PBM E-score” value rises from 0.0162 to 0.229.

Compared with AAGGTCTG, ATCAAAAG is higher in “PBM E-score” value: -0.105 for the first, 0.0759 for the second.

First: AAGACGCC
Second: CTAATATA
The “PBM E-score” value of the first is lower: -0.064 for the first, 0.0911 for the second.

First: AGGCCAGG
Second: GCTTTACC
The “PBM E-score” value of the first is lower: -0.0853 for the first, 0.0625 for the second.

Going from CCTCAAAA to CTGTCAAG, the “PBM E-score” value falls from -0.0493 to -0.0953.

Compared with GGAACCCC, CTGACAAG is higher in “PBM E-score” value: -0.102 for the first, 0.0456 for the second.

First: GGCCTACC
Second: GCCGTGCA
The “PBM E-score” value of the first is higher: 0.00494 for the first, -0.164 for the second.

Compared with TAACTGGA, CCTCGTAC is lower in “PBM E-score” value: -0.00372 for the first, -0.0306 for the second.

Going from AACTTTTA to CCTAGGTC, the “PBM E-score” value falls from 0.172 to -0.147.

First: ATGAGTAC
Second: CCAGGCCC
The “PBM E-score” value of the first is higher: 0.102 for the first, -0.195 for the second.

First: ATTGCCCC
Second: CCTACTAC
The “PBM E-score” value of the first is higher: 0.114 for the first, -0.0792 for the second.

Going from ACATCACA to GCCGATTA, the “PBM E-score” value falls from 0.13 to 0.128.

Going from GCGTCAGA to AACTACTA, the “PBM E-score” value rises from -0.00632 to 0.236.

Compared with CAGAGTGG, AGAAACAG is higher in “PBM E-score” value: -0.158 for the first, 0.00274 for the second.

Compared with ACGTAGTG, AGACGCCT is lower in “PBM E-score” value: 0.0483 for the first, -0.255 for the second.

First: GATTACCA
Second: AAAGTAGT
The “PBM E-score” value of the first is higher: 0.218 for the first, 0.0884 for the second.

Going from CATTAGGG to TCAATCGA, the “PBM E-score” value rises from -0.117 to 0.142.

First: ATCCCAAA
Second: GTATCGCA
The “PBM E-score” value of the first is higher: 0.0715 for the first, -0.0983 for the second.

First: GAATCACC
Second: CGGGACCG
The “PBM E-score” value of the first is higher: 0.0176 for the first, -0.148 for the second.

Going from ACTAGACT to AGTGTCAA, the “PBM E-score” value rises from -0.257 to -0.0591.

Going from ACGGTGCC to ACAAAGTC, the “PBM E-score” value rises from -0.184 to -0.0487.

First: CAGATATC
Second: CCGCTGAC
The “PBM E-score” value of the first is lower: 0.128 for the first, 0.137 for the second.

Compared with AGTGAAAA, ACCTAGGT is lower in “PBM E-score” value: 0.126 for the first, -0.212 for the second.

Going from CCCGCACG to CAGGTTTA, the “PBM E-score” value rises from -0.0652 to 0.109.

First: TAAGACGA
Second: ATGAGAAA
The “PBM E-score” value of the first is lower: 0.0211 for the first, 0.11 for the second.

Going from AGCGATGA to AATAAGCC, the “PBM E-score” value falls from 0.111 to 0.107.
